Reference: PubChem BioAssay AID256 (DTP/NCI, 2004)
The list is a part of this screen's results and no random one: it covers a few groups of compounds. Not every dose and run of a compound is shown. T/C is the treated group as % of the vehicle group. Some entries give survivors of the animals treated and no T/C: the source holds a T/C of zero for them, seemingly a mark for toxic or unscored doses. Some survivor counts are full or nearly so, which does not show that the dose was tolerated: survival well below the control is almost never listed, so the zero probably covers shortened survival too. Counts of survivors are from the toxicity check (mostly the fifth day) where no day follows; animals may have died later. Schedules are NCI's codes, taken here to give the interval after Q, in days (D) or hours (H), and the number of doses after X. For survival time, this PubChem deposit counts one and a half times the control or more as active, and values a quarter to a half above the control carry no call in these data; other NCI protocols may use other cut-offs. Some entries show no survivor count and are marked so; the dose need not have been tolerated. Some entries hold several experiments; their values stand side by side, smallest first. Some T/C values carry the count of animals alive at the toxicity check (mostly the fifth day); where neither a count nor a note follows, no animal had died by that day.

Test system: CD2F1 mice, L1210 leukemia ip, survival T/C
Assay: NCI In Vivo Anticancer Drug Screen. Data for tumor model L1210 Leukemia (intraperitoneal) in CD2F1 (CDF1) mice
Details: higher T/C = longer survival
Procedure, shortened: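 Antitumor effect is scored in animals hosting a serially transplanted tumor. Values compare compound-dosed animals against vehicle-only controls as a simple quotient.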

For `O=c1oc(CCN(CCCl)CCCl)nc2ccccc12`, the T/C (T/C endpoint: mean survival time, dose: 100.0 mg/kg/injection, schedule: Q01DX001 (ip), vehicle: Klucel (hydroxypropylcellulose) (HPC)) was 108 [survivor count not shown] and 110 % of control [survivor count not shown], the T/C (T/C endpoint: mean survival time, dose: 200.0 mg/kg/injection, schedule: Q01DX001 (ip), vehicle: Klucel (hydroxypropylcellulose) (HPC)) was 134 [survivor count not shown] and 143 % of control [survivor count not shown] and the T/C (T/C endpoint: mean survival time, dose: 400.0 mg/kg/injection, schedule: Q01DX001 (ip), vehicle: Klucel (hydroxypropylcellulose) (HPC)) was 116 % of control [survivor count not shown].
With `CCC(C)(O)C#CCN(CCCl)CCCl` (stereo not given) the T/C (T/C endpoint: mean survival time, dose: 12.5 mg/kg/injection, schedule: Q01DX001 (ip), vehicle: saline) was 121 % of control [survivor count not shown] and the T/C (T/C endpoint: mean survival time, dose: 25.0 mg/kg/injection, schedule: Q01DX001 (ip), vehicle: saline) was 141 % of control [survivor count not shown].
In the case of `NC1CCCCC1.NNP(=O)(O)N(CCCl)CCCl`, the T/C (T/C endpoint: mean survival time, dose: 25.0 mg/kg/injection, schedule: Q01DX001 (ip), vehicle: water) is reported as 97 % of control [survivor count not shown], the T/C (T/C endpoint: mean survival time, dose: 50.0 mg/kg/injection, schedule: Q01DX001 (ip), vehicle: water) is reported as 101 % of control [survivor count not shown] and the T/C (T/C endpoint: mean survival time, dose: 100.0 mg/kg/injection, schedule: Q01DX001 (ip), vehicle: water) is reported as 105 % of control [survivor count not shown]. The T/C (T/C endpoint: mean survival time, dose: 200.0 mg/kg/injection, schedule: Q01DX001 (ip), vehicle: water) was 117 % of control [survivor count not shown] and the T/C (T/C endpoint: mean survival time, dose: 400.0 mg/kg/injection, schedule: Q01DX001 (ip), vehicle: water) was 128 % of control [survivor count not shown].
`NP(=O)(OCCCC=O)N(CCCl)CCCl` (stereo not given) was tested, and the T/C (T/C endpoint: mean survival time, dose: 31.3 mg/kg/injection, schedule: Q01DX001 (ip), vehicle: DMSO) was 97 % of control [survivor count not shown], the T/C (T/C endpoint: mean survival time, dose: 62.5 mg/kg/injection, schedule: Q01DX001 (ip), vehicle: DMSO) was 97 % of control [survivor count not shown] and the T/C (T/C endpoint: mean survival time, dose: 125.0 mg/kg/injection, schedule: Q01DX001 (ip), vehicle: DMSO) was 95 % of control [survivor count not shown]. For the same compound, the T/C (T/C endpoint: mean survival time, dose: 250.0 mg/kg/injection, schedule: Q01DX001 (ip), vehicle: DMSO) was 104 % of control [survivor count not shown] and the T/C (T/C endpoint: mean survival time, dose: 500.0 mg/kg/injection, schedule: Q01DX001 (ip), vehicle: DMSO) was 113 % of control [survivor count not shown].
`Cc1ccc(N(CCBr)CCBr)cc1` was tested, and the T/C (T/C endpoint: mean survival time, dose: 3.12 mg/kg/injection, schedule: Q01DX009 (ip), vehicle: Klucel (hydroxypropylcellulose) (HPC)) was 120 % of control, the T/C (T/C endpoint: mean survival time, dose: 6.25 mg/kg/injection, schedule: Q01DX009 (ip), vehicle: Klucel (hydroxypropylcellulose) (HPC)) was 106 % of control and the survivor count (T/C endpoint: mean survival time, dose: 12.5 mg/kg/injection, schedule: Q01DX009 (ip), vehicle: Klucel (hydroxypropylcellulose) (HPC)) was 6 of 6. For the same compound, the survivor count (T/C endpoint: mean survival time, dose: 25.0 mg/kg/injection, schedule: Q01DX009 (ip), vehicle: Klucel (hydroxypropylcellulose) (HPC)) was 6 of 6, the survivor count (T/C endpoint: mean survival time, dose: 50.0 mg/kg/injection, schedule: Q01DX009 (ip), vehicle: Klucel (hydroxypropylcellulose) (HPC)) was 3 of 6 and the survivor count (T/C endpoint: mean survival time, dose: 100.0 mg/kg/injection, schedule: Q01DX009 (ip), vehicle: Klucel (hydroxypropylcellulose) (HPC)) was 0 of 6. For the same compound, the T/C (T/C endpoint: median survival time, dose: 3.12 mg/kg/injection, schedule: Q01DX009 (ip), vehicle: Klucel (hydroxypropylcellulose) (HPC)) was 121 % of control [9 of 10 alive], the T/C (T/C endpoint: median survival time, dose: 6.25 mg/kg/injection, schedule: Q01DX009 (ip), vehicle: Klucel (hydroxypropylcellulose) (HPC)) was 98 % of control and the survivor count (T/C endpoint: median survival time, dose: 12.5 mg/kg/injection, schedule: Q01DX009 (ip), vehicle: Klucel (hydroxypropylcellulose) (HPC)) was 9 of 10. The survivor count (T/C endpoint: median survival time, dose: 25.0 mg/kg/injection, schedule: Q01DX009 (ip), vehicle: Klucel (hydroxypropylcellulose) (HPC)) was 9 of 10, the survivor count (T/C endpoint: median survival time, dose: 50.0 mg/kg/injection, schedule: Q01DX009 (ip), vehicle: Klucel (hydroxypropylcellulose) (HPC)) was 1 of 10 and the survivor count (T/C endpoint: median survival time, dose: 100.0 mg/kg/injection, schedule: Q01DX009 (ip), vehicle: Klucel (hydroxypropylcellulose) (HPC)) was 0 of 10.
With `O=P(Cl)(Cl)CCCl` the T/C (T/C endpoint: mean survival time, dose: 100.0 mg/kg/injection, schedule: Q04DX002 (ip), vehicle: saline) was 94 % of control [survivor count not shown] and the T/C (T/C endpoint: mean survival time, dose: 200.0 mg/kg/injection, schedule: Q04DX002 (ip), vehicle: saline) was 88 % of control [survivor count not shown].
`O=P1(N(CCCl)CCCl)OC2CCN1CC2` (stereo not given) was tested, and the T/C (T/C endpoint: mean survival time, dose: 25.0 mg/kg/injection, schedule: Q01DX001 (ip), vehicle: DMSO) was 94 % of control, the T/C (T/C endpoint: mean survival time, dose: 50.0 mg/kg/injection, schedule: Q01DX001 (ip), vehicle: DMSO) was 109 % of control and the T/C (T/C endpoint: mean survival time, dose: 100.0 mg/kg/injection, schedule: Q01DX001 (ip), vehicle: DMSO) was 100 % of control. For the same compound, the survivor count (T/C endpoint: mean survival time, dose: 200.0 mg/kg/injection, schedule: Q01DX001 (ip), vehicle: DMSO) was 1 of 6, the survivor count (T/C endpoint: mean survival time, dose: 400.0 mg/kg/injection, schedule: Q01DX001 (ip), vehicle: DMSO) was 0 of 6 and the survivor count (T/C endpoint: mean survival time, dose: 800.0 mg/kg/injection, schedule: Q01DX001 (ip), vehicle: DMSO) was 0 of 6.
